PubChem BioAssay AID504764 | Drosophila RNAi Screening Center – 2011

Test: 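Genome-wide screen for regulators of Notch-driven gene expression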 (primary screen)
Cell system: Drosophila Kc167 cells
Reagents: long dsRNA against Drosophila genes
Time to read-out: about 5 days (4 days dsRNA, then 24 h after transfection)
Conditions: transfection of constitutively active membrane-tethered Notch lacking the extracellular domain, read 24 h later
Measurement: 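Light from a Notch-responsive E(spl)m3 luciferase reporter under active Notch, with control-promoter and no-Notch reporter wells to normalise; raw counts from paired wells a and b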
Reading the numbers: induced reporter light, run 1, well a and induced reporter light, run 1, well b: higher = more light from the Notch target reporter with active Notch; control promoter light, run 1, well a and control promoter light, run 1, well b: higher = more light from the viral control promoter (cell number, transfection, viability); uninduced reporter light, run 1, well a: higher = more light from the Notch target reporter without active Notch
Call rule: 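Wells with low control signal or poorly matching duplicates excluded; duplicates averaged; per source plate, z beyond ±2 for induced/control log2 ratio or beyond ±1.8 for induced/uninduced marks a hit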
Meaning of the calls: active = modifier hit (raised or lowered Notch signal); inactive = not a hit
The deposit covers about 22,000 reagents; shown is an unselected part of those with a known target gene and a result. Of all reagents, 403 (1.9%) were called active. 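Unnormalised raw counts per well; ratio z-scores behind the hit calls and whether each hit raises or lowers signal are not deposited.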 Not given: the amount of reagent.

| target | amplicon | induced reporter light, run 1, well a | induced reporter light, run 1, well b | control promoter light, run 1, well a | control promoter light, run 1, well b | uninduced reporter light, run 1, well a | outcome |
| --- | --- | --- | --- | --- | --- | --- | --- |
| CG12693 | DRSC17882 | 1.32e5 | 1.21e5 | 2.44e5 | 2.33e5 | 9205 | inactive |
| PolE2 | DRSC09737 | 89820 | 1.11e5 | 77860 | 29000 | 9790 | inactive |
| Chrac-16 | DRSC20343 | 96380 | 85720 | 1.39e5 | 1.67e5 | 9350 | inactive |
| CG17567 (retired record) | DRSC02627 | 38605 | 27985 | 33200 | 27760 | 1845 | inactive |
| Tsp42Ei | DRSC06189 | 2.12e5 | 1.90e5 | 2.58e5 | 1.91e5 | 17535 | inactive |
| CG6738 | DRSC16104 | 1.74e5 | 1.58e5 | 2.36e5 | 2.49e5 | 15155 | inactive |
| CG32277 | DRSC08196 | 1.08e5 | 1.04e5 | 1.74e5 | 1.40e5 | 7350 | inactive |
| CG31454 | DRSC14365 | 89495 | 1.07e5 | 98320 | 84370 | 6675 | inactive |
| Rgk3 | DRSC04250 | 45840 | 48915 | 51460 | 43940 | 2350 | inactive |
| Rgk3 | DRSC04251 | 53945 | 46470 | 45340 | 72010 | 2335 | inactive |
| Rgk3 | DRSC04254 | 56055 | 48180 | 51135 | 44185 | 2428 | inactive |
| Rgk3 | DRSC04255 | 51675 | 40120 | 50130 | 40305 | 2685 | inactive |
| Npl4 | DRSC15615 | 1.27e5 | 1.49e5 | 1.80e5 | 1.54e5 | 10085 | inactive |
| Npl4 | DRSC15616 | 1.43e5 | 1.09e5 | 1.20e5 | 1.13e5 | 10550 | inactive |
| CG42594 | DRSC18053 | 6550 | 6685 | 11150 | 11160 | 3765 | inactive |
| CG42594 | DRSC18408 | 1.44e5 | 1.42e5 | 2.95e5 | 2.32e5 | 9760 | inactive |
| NK7.1 | DRSC16755 | 55560 | 57340 | 34900 | 32835 | 8375 | inactive |
| CG44838 | DRSC10330 | 4635 | 3920 | 4950 | 2610 | 2860 | inactive |
| CG44838 | DRSC10371 | 79575 | 1.15e5 | 62820 | 29640 | 8990 | inactive |
| C15 | DRSC13495 | 74815 | 71135 | 1.02e5 | 61755 | 10390 | inactive |
| C15 | DRSC14169 | 1.70e5 | 1.52e5 | 1.14e5 | 1.12e5 | 10940 | inactive |

Ordered by “induced reporter light, run 1, well b” (high to low): some entries from above
| target | amplicon | induced reporter light, run 1, well a | induced reporter light, run 1, well b | control promoter light, run 1, well a | control promoter light, run 1, well b | uninduced reporter light, run 1, well a | outcome |
| --- | --- | --- | --- | --- | --- | --- | --- |
| CG42594 | DRSC18408 | 1.44e5 | 1.42e5 | 2.95e5 | 2.32e5 | 9760 | inactive |
| NK7.1 | DRSC16755 | 55560 | 57340 | 34900 | 32835 | 8375 | inactive |
| CG42594 | DRSC18053 | 6550 | 6685 | 11150 | 11160 | 3765 | inactive |
